Data published in PMC5292684, “High affinity anchoring of the decoration protein pb10 onto the bacteriophage T5 capsid” (Scientific Reports, 2017).
Results are given in words; binding and its absence hold for the method and conditions named. Sequences can lack the tags named with a protein.

Molecular target: decoration protein pb10 of bacteriophage T5, full-length, fused to a C-terminal histidine tag (bacteriophage T5) (UniProt Q6QGD6)
Assay: SEC-MALS; SEC-MALLS of pb10 fused to a C-terminal histidine tag; single peak corresponding to 17 kDa; both purified

B1: decoration protein pb10 of bacteriophage T5, full-length, fused to a C-terminal histidine tag (natural protein, UniProt Q6QGD6 1-164, looked up)
chain: MIDYSGLRTIFGEKLPESHIFFATVAAHKYVPSYAFLRRELGLSSAHTNRKVWKKFVEAYGKAIPPAPPAPPLTLSKDLTASMSVEEGAALTLSVTATGGTGPYTYAWTKDGSPIPDASGATYTKPTAAAEDAGSYKVTVTDSKQVSKDSTTCAVTVNPTVPGG
notes: decoration protein pb10 of bacteriophage T5, 164 amino acids, GenBank AAU05286; Monomer by SEC-MALLS (17 kDa); 18.3 kDa with the His tag; also called pb10-His; His-tagged pb10; source: pET28b expression vector, purified (expression and purification detailed in SI); not shown: His-Tag, C-terminal, kept
B1 was tested, and the binding was “no binding”.
